Measured values: PMC12559739
These are yes or no findings as the source states them, for the method shown. In cells and extracts the contact can be indirect. A yes stands for co-enrichment or nearness to the bait. Other partners may have been found.

What was measured:
[1] = biological target: HA-tagged CUL4A (UniProt Q13619); assay: affinity purification with mass spectrometry; tandem: HEK293T co-transfected with StrepII-FLAG-DCAF12 and HA-CUL4A, 48 h; Strep-TactinXT purification, then immunoprecipitation of HA-CUL4A; LC-MS/MS; compared with CRL4A-DCAF4 or CRL1-FBXL6 controls
[2] = biological target: StrepII-FLAG-tagged DCAF12 (human) (UniProt Q5T6F0); assay: affinity purification with mass spectrometry; HEK293T transfected with StrepII-FLAG-DCAF12 or empty vector, 48 h, then DMSO or MG132 for 6 h; Strep-TactinXT, elution with desthiobiotin; LC-MS/MS

binding [1] | binding [2] | Molecule
binds |  | StrepII-FLAG-tagged DCAF12 (from UniProt Q5T6F0 1-453)
 | binds | MCM2 (from UniProt P49736 1-904)
 | binds | MCM6 (protein, UniProt Q14566 1-821) MDLAAAAEPGAGSQHLEVRDEVAEKCQKLFLDFLEEFQSSDGEIKYLQLAEELIRPERNTLVVSFVDLEQFNQQLSTTIQEEFYRVYPYLCRALKTFVKDRKEIPLAKDFYVAFQDLPTRHKIRELTSSRIGLLTRISGQVVRTHPVHPELVSGTFLCLDCQTVIRDVEQQFKYTQPNICRNPVCANRRRFLLDTNKSRFVDFQKVRIQETQAELPRGSIPRSLEVILRAEAVESAQAGDKCDFTGTLIVVPDVSKLSTPGARAETNSRVSGVDGYETEGIRGLRALGVRDLSYRLVFLACCVAPTNPRFGGKELRDEEQTAESIKNQMTVKEWEKVFEMSQDKNLYHNLCTSLFPTIHGNDEVKRGVLLMLFGGVPKTTGEGTSLRGDINVCIVGDPSTAKSQFLKHVEEFSPRAVYTSGKASSAAGLTAAVVRDEESHEFVIEAGALMLADNGVCCIDEFDKMDVRDQVAIHEAMEQQTISITKAGVKATLNARTSILAAANPISGHYDRSKSLKQNINLSAPIMSRFDLFFILVDECNEVTDYAIARRIVDLHSRIEESIDRVYSLDDIRRYLLFARQFKPKISKESEDFIVEQYKHLRQRDGSGVTKSSWRITVRQLESMIRLSEAMARMHCCDEVQPKHVKEAFRLLNKSIIRVETPDVNLDQEEEIQMEVDEGAGGINGHADSPAPVNGINGYNEDINQESAPKASLRLGFSEYCRISNLIVLHLRKVEEEEDESALKRSELVNWYLKEIESEIDSEEELINKKRIIEKVIHRLTHYDHVLIELTQAGLKGSTEGSESYEEDPYLVVNPNYLLED
 | binds | MCM5 (protein, UniProt P33992 1-734) MSGFDDPGIFYSDSFGGDAQADEGQARKSQLQRRFKEFLRQYRVGTDRTGFTFKYRDELKRHYNLGEYWIEVEMEDLASFDEDLADYLYKQPAEHLQLLEEAAKEVADEVTRPRPSGEEVLQDIQVMLKSDASPSSIRSLKSDMMSHLVKIPGIIIAASAVRAKATRISIQCRSCRNTLTNIAMRPGLEGYALPRKCNTDQAGRPKCPLDPYFIMPDKCKCVDFQTLKLQELPDAVPHGEMPRHMQLYCDRYLCDKVVPGNRVTIMGIYSIKKFGLTTSRGRDRVGVGIRSSYIRVLGIQVDTDGSGRSFAGAVSPQEEEEFRRLAALPNVYEVISKSIAPSIFGGTDMKKAIACLLFGGSRKRLPDGLTRRGDINLLMLGDPGTAKSQLLKFVEKCSPIGVYTSGKGSSAAGLTASVMRDPSSRNFIMEGGAMVLADGGVVCIDEFDKMREDDRVAIHEAMEQQTISIAKAGITTTLNSRCSVLAAANSVFGRWDETKGEDNIDFMPTILSRFDMIFIVKDEHNEERDVMLAKHVITLHVSALTQTQAVEGEIDLAKLKKFIAYCRVKCGPRLSAEAAEKLKNRYIIMRSGARQHERDSDRRSSIPITVRQLEAIVRIAEALSKMKLQPFATEADVEEALRLFQVSTLDAALSGTLSGVEGFTSQEDQEMLSRIEKQLKRRFAIGSQVSEHSIIKDFTKQKYPEHAIHKVLQLMLRRGEIQHRMQRKVLYRLK
 | binds | MCM3 (protein, UniProt P25205 1-808) MAGTVVLDDVELREAQRDYLDFLDDEEDQGIYQSKVRELISDNQYRLIVNVNDLRRKNEKRANRLLNNAFEELVAFQRALKDFVASIDATYAKQYEEFYVGLEGSFGSKHVSPRTLTSCFLSCVVCVEGIVTKCSLVRPKVVRSVHYCPATKKTIERRYSDLTTLVAFPSSSVYPTKDEENNPLETEYGLSVYKDHQTITIQEMPEKAPAGQLPRSVDVILDDDLVDKAKPGDRVQVVGTYRCLPGKKGGYTSGTFRTVLIACNVKQMSKDAQPSFSAEDIAKIKKFSKTRSKDIFDQLAKSLAPSIHGHDYVKKAILCLLLGGVERDLENGSHIRGDINILLIGDPSVAKSQLLRYVLCTAPRAIPTTGRGSSGVGLTAAVTTDQETGERRLEAGAMVLADRGVVCIDEFDKMSDMDRTAIHEVMEQGRVTIAKAGIHARLNARCSVLAAANPVYGRYDQYKTPMENIGLQDSLLSRFDLLFIMLDQMDPEQDREISDHVLRMHRYRAPGEQDGDAMPLGSAVDILATDDPNFSQEDQQDTQIYEKHDNLLHGTKKKKEKMVSAAFMKKYIHVAKIIKPVLTQESATYIAEEYSRLRSQDSMSSDTARTSPVTARTLETLIRLATAHAKARMSKTVDLQDAEEAVELVQYAYFKKVLEKEKKRKKRSEDESETEDEEEKSQEDQEQKRKRRKTRQPDAKDGDSYDPYDFSDTEEEMPQVHTPKTADSQETKESQKVELSESRLKAFKVALLDVFREAHAQSIGMNRLTESINRDSEEPFSSVEIQAALSKMQDDNQVMVSEGIIFLI
